{"sequences": {"note": "By UniProt entry, the sequences of proteins in these tests, tags left out. Where a name states a change or a piece, a line headed by the entry shows the natural chain unless it says otherwise.", "UniProt P00970": "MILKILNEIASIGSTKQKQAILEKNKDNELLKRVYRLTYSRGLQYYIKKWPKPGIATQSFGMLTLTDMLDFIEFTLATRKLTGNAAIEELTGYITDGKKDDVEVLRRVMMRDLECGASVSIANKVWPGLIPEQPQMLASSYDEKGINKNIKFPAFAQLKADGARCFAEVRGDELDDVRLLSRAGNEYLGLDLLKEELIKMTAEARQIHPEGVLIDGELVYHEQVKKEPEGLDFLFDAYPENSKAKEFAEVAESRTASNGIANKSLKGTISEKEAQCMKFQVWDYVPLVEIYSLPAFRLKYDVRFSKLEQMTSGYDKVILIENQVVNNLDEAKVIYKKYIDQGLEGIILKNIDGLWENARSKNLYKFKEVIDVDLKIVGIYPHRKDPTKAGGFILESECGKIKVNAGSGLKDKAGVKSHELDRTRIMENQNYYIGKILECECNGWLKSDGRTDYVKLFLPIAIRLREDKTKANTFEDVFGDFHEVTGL"}, "source": "patent US20150247183", "key": {"Exonuclease III (ExoIII)": {"biological_target": "T1, Exonuclease III (ExoIII) (UniProt P09030)", "T1 sequence (looked up, limits assumed)": "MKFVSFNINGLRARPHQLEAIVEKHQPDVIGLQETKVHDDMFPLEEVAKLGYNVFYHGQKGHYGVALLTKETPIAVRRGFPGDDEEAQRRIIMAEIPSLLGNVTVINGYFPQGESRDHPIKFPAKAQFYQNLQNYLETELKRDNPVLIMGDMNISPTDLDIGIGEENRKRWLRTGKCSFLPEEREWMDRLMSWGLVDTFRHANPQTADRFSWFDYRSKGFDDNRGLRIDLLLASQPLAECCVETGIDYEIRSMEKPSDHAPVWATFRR", "test": "enzyme reaction in vitro", "details": "four 2'-OMe U and a T at 3' end of 41; sense strand digested, 2'-OMe-blocked antisense protected; NEBuffer 1, 37 C 1 h; purified recombinant protein; protein details: 100 U/uL, used in NEBuffer 1"}, "T4 DNA ligase": {"biological_target": "T4 DNA ligase (UniProt P00970)", "test": "activity assay", "details": "purified recombinant protein"}}, "note": "For some of these results: Protein sequences can lack the tags named with them."}
{"sequence": "TATTGACGTCCTTCCCCGTACGCCGGGCAATAACGTTTATGT (double strand) [template + synthetic antisense duplex]", "values": [{"measurement": "activity on this sequence", "setting": "Exonuclease III (ExoIII)", "value": "active"}]}
{"sequence": "TATTGACGTCCTTCCCCGTACGCCGGGCAATAACGTTTATGT / ACATAAA / CGTTATT / GCCCGGC / GTACGGG / GAAGGAC / GTCAATA [template + six oligomers]", "values": [{"measurement": "activity on this sequence", "setting": "T4 DNA ligase; 5' phosphate on 43-47, four 2'-OMe U and a T at 3' end of 47, ligated, Tm and PAGE, 1 mM ATP, 20% DMSO, 16 C 18 h", "value": "active"}]}
{"sequence": "TATTGACGTCCTTCCCCGTACGCCGGGCAATAACGTTTATGT / ACATAAA / CGTTATT / GCCCGGC / GTACGGG / GAAGGAC [template + 42-46]", "values": [{"measurement": "activity on this sequence", "setting": "T4 DNA ligase; 5' phosphate on 43-46, ligated 5mer by Tm, 1 mM ATP, 20% DMSO, 16 C 18 h", "value": "active"}]}
{"sequence": "TATTGACGTCCTTCCCCGTACGCCGGGCAATAACGTTTATGT / CGTTATT / GCCCGGC / GTACGGG / GAAGGAC [template + 43-46]", "values": [{"measurement": "activity on this sequence", "setting": "T4 DNA ligase; 5' phosphate on oligomers, ligated 4mer by Tm, 1 mM ATP, 20% DMSO, 16 C 18 h", "value": "active"}]}
{"sequence": "TATTGACGTCCTTCCCCGTACGCCGGGCAATAACGTTTATGT / GCCCGGC / GTACGGG / GAAGGAC [template + 44-46]", "values": [{"measurement": "activity on this sequence", "setting": "T4 DNA ligase; 5' phosphate on oligomers, ligated 3mer by Tm, 1 mM ATP, 20% DMSO, 16 C 18 h", "value": "active"}]}
{"sequence": "TATTGACGTCCTTCCCCGTACGCCGGGCAATAACGTTTATGT / GTACGGG / GAAGGAC [template + 45,46]", "values": [{"measurement": "activity on this sequence", "setting": "T4 DNA ligase; 5' phosphate on oligomers, ligated 2mer by Tm, 1 mM ATP, 20% DMSO, 16 C 18 h", "value": "active"}]}
{"sequence": "TTACAGTAGACAGGTCACTCACCTGCATGTCACTCCGTTGTCGTTC / AACATCACCTAGCCTGCGAACGACAACGGAGTGACATGC / AGGTGAGTGACCTGTCTACTGTAAGATGCAGTCTCTCGTGG [positive control nick]", "values": [{"measurement": "activity on this sequence", "setting": "T4 DNA ligase; 5' amino on 56, 5' phosphate and 3' four 2'-OMe U + T on 57, nick ligated, 10 mM MgCl2, 1 mM ATP, 22 C 1 h, no product without ligase", "value": "active"}]}
